Values quoted from earlier work as cited in patent US11648235B1, “Treatment of glioblastoma” (Cantex Pharmaceuticals, Inc., priority 2022, dated 2023).
At least one structure is not confirmed: it was looked up by name or label, or the drawing left a doubt.

System: glioblastoma (GBM)
Conditions: surgical resection followed by RT and concurrent TMZ, then adjuvant TMZ for 6 months (Stupp regimen); newly-diagnosed GBM patients

Structure (SMILES): Cn1nnc2c(C(N)=O)ncn2c1=O [temozolomide]
- 2-year overall survival: 26%
- median overall survival (OS): 14.6 months
